# Measured values from article PMC4298136.
# Results are given in words; binding and its absence hold for the method and conditions named. Binding seen in cells or lysates may run through a third protein. Some entries that bind do so weakly or less than the wild type.
# T1: Dvl-2 (mouse (endogenous in AKC14 and AKC17 cells)) (UniProt Q60838)
# T1 sequence: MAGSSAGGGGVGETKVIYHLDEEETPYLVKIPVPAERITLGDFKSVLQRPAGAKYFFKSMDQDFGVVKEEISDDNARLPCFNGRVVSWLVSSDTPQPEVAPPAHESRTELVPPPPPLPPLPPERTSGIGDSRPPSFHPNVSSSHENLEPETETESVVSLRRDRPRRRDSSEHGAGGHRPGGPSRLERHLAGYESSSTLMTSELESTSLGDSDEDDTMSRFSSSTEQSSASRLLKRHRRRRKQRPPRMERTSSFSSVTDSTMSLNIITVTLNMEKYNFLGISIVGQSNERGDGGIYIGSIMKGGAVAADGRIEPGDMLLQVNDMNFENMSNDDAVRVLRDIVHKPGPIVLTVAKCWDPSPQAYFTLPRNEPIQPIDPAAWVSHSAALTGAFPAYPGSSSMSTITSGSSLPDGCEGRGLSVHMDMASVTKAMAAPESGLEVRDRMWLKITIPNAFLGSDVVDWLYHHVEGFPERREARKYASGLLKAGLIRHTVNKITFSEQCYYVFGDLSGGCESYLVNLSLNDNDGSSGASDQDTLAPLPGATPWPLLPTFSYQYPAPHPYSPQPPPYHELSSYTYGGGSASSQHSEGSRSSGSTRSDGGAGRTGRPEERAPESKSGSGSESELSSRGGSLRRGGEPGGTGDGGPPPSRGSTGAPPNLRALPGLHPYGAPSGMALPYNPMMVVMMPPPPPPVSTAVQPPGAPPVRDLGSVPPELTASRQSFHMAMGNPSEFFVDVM
# Target: T1, Dvl-2 (mouse (endogenous in AKC14 and AKC17 cells))
# Experiment: co-IP; AKC14 and AKC17 cells expressing control or ATDC shRNA; which protein was precipitated is not told in the main text
binder,measurement,value
"ataxia telangiectasia group D complementing gene (ATDC) (protein, UniProt Q14134 1-588) MEAADASRSNGSSPEARDARSPSGPSGSLENGTKADGKDAKTTNGHGGEAAEGKSLGSALKPGEGRSALFAGNEWRRPIIQFVESGDDKNSNYFSMDSMEGKRSPYAGLQLGAAKKPPVTFAEKGELRKSIFSESRKPTVSIMEPGETRRNSYPRADTGLFSRSKSGSEEVLCDSCIGNKQKAVKSCLVCQASFCELHLKPHLEGAAFRDHQLLEPIRDFEARKCPVHGKTMELFCQTDQTCICYLCMFQEHKNHSTVTVEEAKAEKETELSLQKEQLQLKIIEIEDEAEKWQKEKDRIKSFTTNEKAILEQNFRDLVRDLEKQKEEVRAALEQREQDAVDQVKVIMDALDERAKVLHEDKQTREQLHSISDSVLFLQEFGALMSNYSLPPPLPTYHVLLEGEGLGQSLGNFKDDLLNVCMRHVEKMCKADLSRNFIERNHMENGGDHRYVNNYTNSFGGEWSAPDTMKRYSMYLTPKGGVRTSYQPSSPGRFTKETTQKNFNNLYGTKGNYTSRVWEYSSSIQNSDNDLPVVQGSSSFSLKGYPSLMRSQSPKAQPQTWKSGKQTMLSHYRPFYVNKGNGIGSNEAP",binding,binds
